Results: patent US6569434
No constants are given. Whether binding was seen depends on the method and setting. Some results given as binding are weak or reduced against the parent protein; the word gives no strength.

Chains of the proteins cited; added tags and fusions are not shown. Lines headed by an entry give the natural chain unless they say otherwise; changes in a name come on top. A line that says so, or that is headed by a name, gives the form on record, which may keep a tag or linker.
human recombinant VEGF A subunit (FIG. 12, 191 amino acid form) (P15692, form named): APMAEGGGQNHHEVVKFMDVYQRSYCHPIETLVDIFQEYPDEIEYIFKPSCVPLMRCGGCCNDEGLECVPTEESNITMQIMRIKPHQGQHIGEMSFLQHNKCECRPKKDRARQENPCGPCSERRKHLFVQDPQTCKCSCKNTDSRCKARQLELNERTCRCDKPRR

Biological target: human recombinant VEGF A subunit (FIG. 12, 191 amino acid form) (human) (UniProt P15692)
Experiment: SDS-PAGE with silver stain of purified recombinant VEGF AC from Sf9 cells; under reducing conditions splits into 25/23 kDa (VEGF A) and 20 kDa (VEGF C) bands, assigned against pure subunits and by Western analysis

B1: human recombinant VEGF C subunit, 149 amino acid form (FIG. 11) (ligand)
chain: LPAVPPQQWALSAGNGSSEVEVVPFQEVWGRSYCRALERLVDVVSEYPSEVEHMFSPSCVSLLRCTGCCGDENLHCVPVETANVTMQLLKIRSGDRPSYVELTFSQHVRCECRPLREKMKPERCGDAVPRR
- binding: binds
